Measurements reported in PubChem BioAssay AID1159578 (Peter MacCallum Cancer Centre, 2015).

Purpose: 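siRNA pools altering how lymphatic endothelial cells close a scratch wound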 (primary screen)
Cells: human lymphatic endothelial cells
Reagent: siRNA pool against human genes, 40 nM
Duration: 48 h after transfection
Read-out: 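Cells stained with dye and imaged after a scratch; covered wound area and nuclei counted, duplicates averaged, migration set against mock wells and turned into a robust z-score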
Direction: migration robust z-score: higher = faster migration into the scratch; migration relative to mock: higher = more scratch area covered than mock; nuclei per well: higher = more cells in the well
Active means: 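Migration changed when robust z exceeds 2 or falls below -2 and mean nuclei number is at least 3300; otherwise not called changed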
Meaning of the calls: active = migration changed; inactive = no migration change, or too few cells
The deposit covers about 18,000 reagents; below is a part drawn at random. Over the whole deposit, about 1,030 (5.7%) are marked active. 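Inactive calls also include pools with fewer than 3300 nuclei, whose migration was not assessed.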 The raw values are shown without normalisation. Entries without a mark were called inactive.

| gene | migration robust z-score | migration class with cell-count check | migration relative to mock | nuclei per well, duplicate mean |
| --- | --- | --- | --- | --- |
| MX1 (MX dynamin like GTPase 1) | 1.5 | migration z between -2 and 2; enough cells | 1.09 | 4783 |
| SPTAN1 (spectrin alpha, non-erythrocytic 1) | -1.54 | migration z between -2 and 2; enough cells | 0.5 | 5540 |
| MLX (MAX dimerization protein MLX) | -0.65 | migration z between -2 and 2; enough cells | 0.68 | 5876 |
| BMP7 (bone morphogenetic protein 7) | -1.76 | under 3300 nuclei; migration not judged | 0.46 | 3276 |
| TBX15 (T-box transcription factor 15) | -0.1 | migration z between -2 and 2; enough cells | 0.86 | 6134 |
| TOMM70 (translocase of outer mitochondrial membrane 70) | 0.32 | migration z between -2 and 2; enough cells | 0.97 | 6206 |
| TMOD3 (tropomodulin 3) | 0.88 | migration z between -2 and 2; enough cells | 1.12 | 5634 |
| ADGRF5 (adhesion G protein-coupled receptor F5) | 1.06 | migration z between -2 and 2; enough cells | 1.01 | 5654 |
| TBC1D8 (TBC1 domain family member 8) | -0.3 | migration z between -2 and 2; enough cells | 0.8 | 4988 |
| FAM180A (family with sequence similarity 180 member A) | 0.86 | migration z between -2 and 2; enough cells | 1.11 | 5839 |
| TMPRSS15 (transmembrane serine protease 15) | 0.54 | migration z between -2 and 2; enough cells | 0.91 | 5910 |

Part of the list above, showing only “nuclei per well, duplicate mean”:
MLX (MAX dimerization protein MLX) = 5876
BMP7 (bone morphogenetic protein 7) = 3276

The results go on.
| gene | migration robust z-score | migration class with cell-count check | migration relative to mock | nuclei per well, duplicate mean |
| --- | --- | --- | --- | --- |
| TUBGCP6 (tubulin gamma complex component 6) | 0.42 | migration z between -2 and 2; enough cells | 0.99 | 5933 |
| OGDH (oxoglutarate dehydrogenase) | 0.68 | migration z between -2 and 2; enough cells | 0.94 | 5430 |
| ALDH1L2 (aldehyde dehydrogenase 1 family member L2) | -3.68 | under 3300 nuclei; migration not judged | 0.1 | 3004 |
| TRPM5 | -0.44 | migration z between -2 and 2; enough cells | 0.72 | 4565 |
| COPS3 (COP9 signalosome subunit 3) | -0.9 | migration z between -2 and 2; enough cells | 0.65 | 6032 |
| DENND10P1 (DENND10 pseudogene 1) | -1.48 | migration z between -2 and 2; enough cells | 0.5 | 5794 |
| NUP160 (nucleoporin 160) | -0.31 | migration z between -2 and 2; enough cells | 0.8 | 6003 |
| LRRC37A3 (leucine rich repeat containing 37 member A3) | 0.4 | migration z between -2 and 2; enough cells | 0.99 | 6006 |
| FAM89A (family with sequence similarity 89 member A) | 0.23 | migration z between -2 and 2; enough cells | 0.94 | 6576 |
| SQLE (squalene epoxidase) | -0.5 | migration z between -2 and 2; enough cells | 0.71 | 6037 |
| INSC (INSC spindle orientation adaptor protein) | -0.7 | migration z between -2 and 2; enough cells | 0.7 | 7307 |
| CALCOCO2 (calcium binding and coiled-coil domain 2) | 0.36 | migration z between -2 and 2; enough cells | 0.88 | 5414 |
